Source: PubChem BioAssay AID1159506 (NCATS, 2015).

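Genome-wide siRNA knockdown in TC32 Ewing sarcoma cells, comparing luciferase light from an NR0B1-promoter reporter with a CMV-promoter reporter 48 hours after transfection. Each siRNA was applied at 20 nM. A z-score of the log NR0B1-over-CMV signal, less the median of siRNAs with the same seed; more negative means a stronger specific loss of the NR0B1 reporter.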

This is part of the screen; most of the strongest results are not listed here. Sequences are the guide (antisense) strand, without overhang.

- AUUACGUUUACAAUAUUCC against POF1B | seed-corrected z-score 2.168
- UAUGCUUGAGGAUUCGCUG against CMIP | seed-corrected z-score -1.828
- UCAGCCACCAUCGAGUAGC against HSPA8P14 | seed-corrected z-score 0.5229
- UAUUAUAACCGGAUUACCC against C1orf210 | seed-corrected z-score 0.5943
- UAUGGACAAAGAGUAGUGG against TRIM6 | seed-corrected z-score 0.4613
- UGCAGUAAAACACUAAUGU against SPANXN4 | seed-corrected z-score 1.237
- UUCGUUCACCAUAUCUGCC against UGGT1 | seed-corrected z-score 0.5031
- UAUAGGGUCAUGAAGUUCA against PATE2 | seed-corrected z-score -0.9423
- UGAUGUUCCUGAUUCAGGC against NINL | seed-corrected z-score -0.4791
- UAUUGUAACAGCCUGAGAC against FBXL7 | seed-corrected z-score 0.4885
- AUACUGUAUAAGAAUCUUG against OR6C68 | seed-corrected z-score -0.1926
- UGGUGUUUAAAGCACAUGC against TRIM52 | seed-corrected z-score -1.242
- UGUACUUCCAAGGCAAAAC against C4orf19 | seed-corrected z-score 0.2778
- AAAAGAAAGUCGGAGGGUG against USP41 | seed-corrected z-score -0.4666
- UCGAGUUCCACCAAACUUU against SOCS5P5 | seed-corrected z-score -0.897
- UAUCUGUCCAACCACUCGC against ADGRG7 | seed-corrected z-score -0.5413
- AACCUCAUUAAUAUGCUUG against DYRK1A | seed-corrected z-score 0.6731
- UUUCUUUCCAUGACGGGCG against UNKL | seed-corrected z-score -0.791
- UUGAGGAUGGGUUAGAAGU against ZNF519P3 | seed-corrected z-score 0.5786
- AAAAGGACAAGGGAUUCCU against NFKBIE | seed-corrected z-score -0.06198
- UGAAUAAUAAAGGCUAUGG against HACD2 | seed-corrected z-score 0.4796
- UUUACCUCUUUAUCAAUCC against ASH1L | seed-corrected z-score 0.2678
- UCUAUUUGUACUUGGGAGC against MT1G | seed-corrected z-score 0.01461
- UGCUUUGUUAGUGACCAUC against CNN3P1 | seed-corrected z-score -1.277
- UCAGCUAUAUGACUAGUAC against PHF3 | seed-corrected z-score -0.04777
- UCCUUAUUCAUCUUCAUAC against ROCK1 | seed-corrected z-score 0.4635
- UUACCUCCAAGGGAAUCCC against KIF15 | seed-corrected z-score 0.0602

The last 2 entries again:

strand,gene,seed-corrected z-score
UCCUUAUUCAUCUUCAUAC,ROCK1,0.4635
UUACCUCCAAGGGAAUCCC,KIF15,0.0602